Results as given in patent US12102089B2, “Method for inactivating mold spores” (DSM IP ASSETS B.V., priority 2017, dated 2024).
The source gives many values for each of these; only a part stands here.

Test system: Aspergillus niger ATCC 9029AA
Assay: Heat treatment of Aspergillus niger ATCC 9029AA spores in ice tea with natamycin, visual growth
Assay type: cell-based
Set-up: key: growth (+); no growth (−)
Experimental: Commercially available ice tea (Lipton, peach flavor, non-carbonated, 1.5 L) was adjusted to high water hardness by adding 1 ml of a solution of 39 g CaCl2 and 27 g MgCl2 added to 934 g water. ⅓ of this ice tea preparation (the pH of which was 3.15) was left as-such, ⅓ of the preparation was enriched with 5 ppm natamycin and ⅓ of the preparation was enriched with 10 ppm natamycin. Samples of 5 ml were made from each preparation in 15 ml sterile plastic tubes. Of each preparation 8 samples were pre-heated to the desired pasteurization temperature using a water bath. Temperatures used were RT, 60, 65, 70, 75, 80, 85 and 90° C. When the desired temperature was reached, 100 μl of a 2500 spores/ml spore suspension of Aspergillus niger ATCC 9029AA was added to each tube. Subsequently, the samples were kept for 30 seconds at the temperature in question in the water bath. Next, the samples were cooled on ice to a temperature of 25° C. Samples were incubated at 25° C. and visually examined for growth (formation of mold flakes or turbidity) for two months. Additionally, samples were enumerated according to ISO protocol 21527-1.2008 on day 0 (before heat treatment) and day 1 (after heat treatment) to count immediate loss of viability. Enumeration was repeated after 1 month when samples remained free from visual mold growth; most counts were reduced to <10 after heat treatment, but were still able to grow. For the results, see Table 1.

C[C@@H]1C/C=C/C=C/C=C/C=C/[C@H](O[C@@H]2O[C@H](C)[C@@H](O)[C@H](N)[C@@H]2O)C[C@@H]2O[C@](O)(C[C@@H](O)C[C@H]3O[C@@H]3/C=C/C(=O)O1)C[C@H](O)[C@H]2C(=O)O [natamycin]
growth or no growth (70°C, 10 ppm, day 1): − | growth or no growth (70°C, 10 ppm, day 2): − | growth or no growth (70°C, 10 ppm, day 3): − | growth or no growth (70°C, 10 ppm, day 4): − | growth or no growth (70°C, 10 ppm, day 5): − | growth or no growth (70°C, 10 ppm, day 6): − | growth or no growth (70°C, 10 ppm, day 7): − | growth or no growth (70°C, 10 ppm, day 8): − | growth or no growth (75°C, 5 ppm, day 1): − | growth or no growth (75°C, 5 ppm, day 2): − | growth or no growth (75°C, 5 ppm, day 3): − | growth or no growth (75°C, 5 ppm, day 4): − | growth or no growth (75°C, 5 ppm, day 5): − | growth or no growth (75°C, 5 ppm, day 6): − | growth or no growth (75°C, 5 ppm, day 7): − | growth or no growth (75°C, 5 ppm, day 8): − | growth or no growth (75°C, 5 ppm, day 9): − | growth or no growth (75°C, 5 ppm, day 10): − | growth or no growth (75°C, 5 ppm, day 11): − | growth or no growth (75°C, 5 ppm, day 12): − | growth or no growth (75°C, 5 ppm, day 13): − | growth or no growth (75°C, 5 ppm, day 14): − | growth or no growth (75°C, 5 ppm, day 15): − | growth or no growth (75°C, 5 ppm, day 16): − | growth or no growth (75°C, 5 ppm, day 17): − | growth or no growth (75°C, 5 ppm, day 50): − | growth or no growth (75°C, 10 ppm, day 1): − | growth or no growth (75°C, 10 ppm, day 2): − | growth or no growth (75°C, 10 ppm, day 3): − | growth or no growth (75°C, 10 ppm, day 4): − | growth or no growth (75°C, 10 ppm, day 5): − | growth or no growth (75°C, 10 ppm, day 6): − | growth or no growth (75°C, 10 ppm, day 7): − | growth or no growth (75°C, 10 ppm, day 8): − | growth or no growth (75°C, 10 ppm, day 9): − | growth or no growth (75°C, 10 ppm, day 10): − | growth or no growth (75°C, 10 ppm, day 11): − | growth or no growth (75°C, 10 ppm, day 12): − | growth or no growth (75°C, 10 ppm, day 13): − | growth or no growth (75°C, 10 ppm, day 14): − | growth or no growth (75°C, 10 ppm, day 15): − | growth or no growth (75°C, 10 ppm, day 16): − | growth or no growth (75°C, 10 ppm, day 17): − | growth or no growth (75°C, 10 ppm, day 50): − | growth or no growth (80°C, 5 ppm, day 1): − | growth or no growth (80°C, 5 ppm, day 2): − | growth or no growth (80°C, 5 ppm, day 3): − | growth or no growth (80°C, 5 ppm, day 4): − | growth or no growth (80°C, 5 ppm, day 5): − | growth or no growth (80°C, 5 ppm, day 6): − | growth or no growth (80°C, 5 ppm, day 7): − | growth or no growth (80°C, 5 ppm, day 8): − | growth or no growth (80°C, 5 ppm, day 9): − | growth or no growth (80°C, 5 ppm, day 10): − | growth or no growth (80°C, 5 ppm, day 11): − | growth or no growth (80°C, 5 ppm, day 12): − | growth or no growth (80°C, 5 ppm, day 13): − | growth or no growth (80°C, 5 ppm, day 14): − | growth or no growth (80°C, 5 ppm, day 15): − | growth or no growth (80°C, 5 ppm, day 16): − | growth or no growth (80°C, 5 ppm, day 17): − | growth or no growth (80°C, 5 ppm, day 50): − | growth or no growth (80°C, 10 ppm, day 1): − | growth or no growth (80°C, 10 ppm, day 2): − | growth or no growth (80°C, 10 ppm, day 3): − | growth or no growth (80°C, 10 ppm, day 4): − | growth or no growth (80°C, 10 ppm, day 5): − | growth or no growth (80°C, 10 ppm, day 6): − | growth or no growth (80°C, 10 ppm, day 7): − | growth or no growth (80°C, 10 ppm, day 8): − | growth or no growth (80°C, 10 ppm, day 9): − | growth or no growth (80°C, 10 ppm, day 10): − | growth or no growth (80°C, 10 ppm, day 11): − | growth or no growth (80°C, 10 ppm, day 12): − | growth or no growth (80°C, 10 ppm, day 13): − | growth or no growth (80°C, 10 ppm, day 14): − | growth or no growth (80°C, 10 ppm, day 15): − | growth or no growth (80°C, 10 ppm, day 16): − | growth or no growth (80°C, 10 ppm, day 17): − | growth or no growth (80°C, 10 ppm, day 50): − | growth or no growth (85°C, 5 ppm, day 1): − | growth or no growth (85°C, 5 ppm, day 2): − | growth or no growth (85°C, 5 ppm, day 3): − | growth or no growth (85°C, 5 ppm, day 4): − | growth or no growth (85°C, 5 ppm, day 5): − | growth or no growth (85°C, 5 ppm, day 6): − | growth or no growth (85°C, 5 ppm, day 7): − | growth or no growth (85°C, 5 ppm, day 8): − | growth or no growth (85°C, 5 ppm, day 9): − | growth or no growth (85°C, 5 ppm, day 10): − | growth or no growth (85°C, 5 ppm, day 11): − | growth or no growth (85°C, 5 ppm, day 12): − | growth or no growth (85°C, 5 ppm, day 13): − | growth or no growth (85°C, 5 ppm, day 14): − | growth or no growth (85°C, 5 ppm, day 15): − | growth or no growth (85°C, 5 ppm, day 16): − | growth or no growth (85°C, 5 ppm, day 17): − | growth or no growth (85°C, 5 ppm, day 50): − | growth or no growth (85°C, 10 ppm, day 1): − | growth or no growth (85°C, 10 ppm, day 2): − | growth or no growth (85°C, 10 ppm, day 3): − | growth or no growth (85°C, 10 ppm, day 4): − | growth or no growth (85°C, 10 ppm, day 5): − | growth or no growth (85°C, 10 ppm, day 6): − | growth or no growth (85°C, 10 ppm, day 7): − | growth or no growth (85°C, 10 ppm, day 8): − | growth or no growth (85°C, 10 ppm, day 9): − | growth or no growth (85°C, 10 ppm, day 10): − | growth or no growth (85°C, 10 ppm, day 11): − | growth or no growth (85°C, 10 ppm, day 12): − | growth or no growth (85°C, 10 ppm, day 13): − | growth or no growth (85°C, 10 ppm, day 14): − | growth or no growth (85°C, 10 ppm, day 15): − | growth or no growth (85°C, 10 ppm, day 16): − | growth or no growth (85°C, 10 ppm, day 17): − | growth or no growth (85°C, 10 ppm, day 50): − | growth or no growth (90°C, 5 ppm, day 1): − | growth or no growth (90°C, 5 ppm, day 2): − | growth or no growth (90°C, 5 ppm, day 3): − | growth or no growth (90°C, 5 ppm, day 4): − | growth or no growth (90°C, 5 ppm, day 5): − | growth or no growth (90°C, 5 ppm, day 6): − | growth or no growth (90°C, 5 ppm, day 7): + | growth or no growth (90°C, 5 ppm, day 8): + | growth or no growth (90°C, 5 ppm, day 9): + | growth or no growth (90°C, 5 ppm, day 10): + | growth or no growth (90°C, 5 ppm, day 11): + | growth or no growth (90°C, 5 ppm, day 12): + | growth or no growth (90°C, 5 ppm, day 13): + | growth or no growth (90°C, 5 ppm, day 14): + | growth or no growth (90°C, 5 ppm, day 15): + | growth or no growth (90°C, 5 ppm, day 16): + | growth or no growth (90°C, 5 ppm, day 17): + | growth or no growth (90°C, 5 ppm, day 50): + | growth or no growth (90°C, 10 ppm, day 1): − | growth or no growth (90°C, 10 ppm, day 2): − | growth or no growth (90°C, 10 ppm, day 3): − | growth or no growth (90°C, 10 ppm, day 4): − | growth or no growth (90°C, 10 ppm, day 5): − | growth or no growth (90°C, 10 ppm, day 6): − | growth or no growth (90°C, 10 ppm, day 7): − | growth or no growth (90°C, 10 ppm, day 8): − | growth or no growth (90°C, 10 ppm, day 9): − | growth or no growth (90°C, 10 ppm, day 10): − | growth or no growth (90°C, 10 ppm, day 11): − | growth or no growth (90°C, 10 ppm, day 12): − | growth or no growth (90°C, 10 ppm, day 13): − | growth or no growth (90°C, 10 ppm, day 14): − | growth or no growth (90°C, 10 ppm, day 15): − | growth or no growth (90°C, 10 ppm, day 16): − | growth or no growth (90°C, 10 ppm, day 17): − | growth or no growth (90°C, 10 ppm, day 50): − | growth or no growth (RT, 5 ppm, day 1): − | growth or no growth (RT, 5 ppm, day 2): − | growth or no growth (RT, 5 ppm, day 3): − | growth or no growth (RT, 5 ppm, day 4): − | growth or no growth (RT, 5 ppm, day 5): − | growth or no growth (RT, 5 ppm, day 6): − | growth or no growth (RT, 5 ppm, day 7): − | growth or no growth (RT, 5 ppm, day 8): − | growth or no growth (RT, 5 ppm, day 9): − | growth or no growth (RT, 5 ppm, day 10): + | growth or no growth (RT, 5 ppm, day 11): + | growth or no growth (RT, 5 ppm, day 12): + | growth or no growth (RT, 5 ppm, day 13): + | growth or no growth (RT, 5 ppm, day 14): + | growth or no growth (RT, 5 ppm, day 15): + | growth or no growth (RT, 5 ppm, day 16): + | growth or no growth (RT, 5 ppm, day 17): + | growth or no growth (RT, 5 ppm, day 50): + | growth or no growth (RT, 10 ppm, day 1): − | growth or no growth (RT, 10 ppm, day 2): − | growth or no growth (RT, 10 ppm, day 3): − | growth or no growth (RT, 10 ppm, day 4): − | growth or no growth (RT, 10 ppm, day 5): − | growth or no growth (RT, 10 ppm, day 6): − | growth or no growth (RT, 10 ppm, day 7): − | growth or no growth (RT, 10 ppm, day 8): − | growth or no growth (RT, 10 ppm, day 9): − | growth or no growth (RT, 10 ppm, day 10): − | growth or no growth (RT, 10 ppm, day 11): − | growth or no growth (RT, 10 ppm, day 12): + | growth or no growth (RT, 10 ppm, day 13): + | growth or no growth (RT, 10 ppm, day 14): + | growth or no growth (RT, 10 ppm, day 15): + | growth or no growth (RT, 10 ppm, day 16): + | growth or no growth (RT, 10 ppm, day 17): + | growth or no growth (RT, 10 ppm, day 50): +
